Experimental data: the supplement of paper PMC10849652
The list shows a part of the results.

By UniProt entry, the sequences of proteins in these tests, tags left out. Where a name states a change or a piece, a line headed by the entry shows the natural chain unless it says otherwise.
UniProt Q76I76: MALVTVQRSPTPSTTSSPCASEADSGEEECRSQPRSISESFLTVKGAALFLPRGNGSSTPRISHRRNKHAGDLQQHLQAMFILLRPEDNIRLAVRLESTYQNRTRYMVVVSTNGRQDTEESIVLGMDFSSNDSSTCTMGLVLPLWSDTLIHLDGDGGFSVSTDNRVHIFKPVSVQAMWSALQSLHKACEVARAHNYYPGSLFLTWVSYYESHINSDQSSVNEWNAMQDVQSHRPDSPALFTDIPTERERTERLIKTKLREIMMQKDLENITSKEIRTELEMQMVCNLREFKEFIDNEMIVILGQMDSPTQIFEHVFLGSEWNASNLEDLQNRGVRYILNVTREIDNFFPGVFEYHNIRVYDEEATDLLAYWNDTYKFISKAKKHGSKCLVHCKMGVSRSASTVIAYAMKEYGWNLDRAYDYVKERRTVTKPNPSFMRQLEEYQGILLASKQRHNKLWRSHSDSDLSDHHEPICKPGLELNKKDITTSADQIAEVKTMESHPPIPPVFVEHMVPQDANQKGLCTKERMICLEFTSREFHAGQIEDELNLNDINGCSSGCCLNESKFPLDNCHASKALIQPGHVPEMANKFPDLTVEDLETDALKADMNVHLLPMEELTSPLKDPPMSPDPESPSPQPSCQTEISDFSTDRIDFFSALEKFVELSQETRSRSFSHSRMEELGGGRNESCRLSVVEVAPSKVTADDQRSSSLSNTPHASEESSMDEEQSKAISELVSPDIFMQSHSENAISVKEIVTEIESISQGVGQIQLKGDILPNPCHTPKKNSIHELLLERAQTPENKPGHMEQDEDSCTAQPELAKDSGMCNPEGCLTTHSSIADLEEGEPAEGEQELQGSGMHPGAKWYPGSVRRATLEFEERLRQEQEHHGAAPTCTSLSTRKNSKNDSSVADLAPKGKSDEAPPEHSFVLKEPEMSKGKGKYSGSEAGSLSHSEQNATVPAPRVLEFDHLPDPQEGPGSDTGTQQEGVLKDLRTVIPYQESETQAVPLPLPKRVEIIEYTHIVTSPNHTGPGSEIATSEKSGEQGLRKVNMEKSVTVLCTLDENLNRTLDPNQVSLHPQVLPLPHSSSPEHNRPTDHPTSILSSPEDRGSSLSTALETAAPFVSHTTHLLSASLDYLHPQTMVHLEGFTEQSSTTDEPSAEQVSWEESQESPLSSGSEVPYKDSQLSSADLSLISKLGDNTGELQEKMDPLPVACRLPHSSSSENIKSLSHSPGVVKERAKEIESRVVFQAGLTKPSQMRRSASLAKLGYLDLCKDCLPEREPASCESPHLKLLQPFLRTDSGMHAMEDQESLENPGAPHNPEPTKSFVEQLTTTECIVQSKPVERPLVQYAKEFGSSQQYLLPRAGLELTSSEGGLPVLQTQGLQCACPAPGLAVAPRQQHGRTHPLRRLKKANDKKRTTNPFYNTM
UniProt Q8N3U4: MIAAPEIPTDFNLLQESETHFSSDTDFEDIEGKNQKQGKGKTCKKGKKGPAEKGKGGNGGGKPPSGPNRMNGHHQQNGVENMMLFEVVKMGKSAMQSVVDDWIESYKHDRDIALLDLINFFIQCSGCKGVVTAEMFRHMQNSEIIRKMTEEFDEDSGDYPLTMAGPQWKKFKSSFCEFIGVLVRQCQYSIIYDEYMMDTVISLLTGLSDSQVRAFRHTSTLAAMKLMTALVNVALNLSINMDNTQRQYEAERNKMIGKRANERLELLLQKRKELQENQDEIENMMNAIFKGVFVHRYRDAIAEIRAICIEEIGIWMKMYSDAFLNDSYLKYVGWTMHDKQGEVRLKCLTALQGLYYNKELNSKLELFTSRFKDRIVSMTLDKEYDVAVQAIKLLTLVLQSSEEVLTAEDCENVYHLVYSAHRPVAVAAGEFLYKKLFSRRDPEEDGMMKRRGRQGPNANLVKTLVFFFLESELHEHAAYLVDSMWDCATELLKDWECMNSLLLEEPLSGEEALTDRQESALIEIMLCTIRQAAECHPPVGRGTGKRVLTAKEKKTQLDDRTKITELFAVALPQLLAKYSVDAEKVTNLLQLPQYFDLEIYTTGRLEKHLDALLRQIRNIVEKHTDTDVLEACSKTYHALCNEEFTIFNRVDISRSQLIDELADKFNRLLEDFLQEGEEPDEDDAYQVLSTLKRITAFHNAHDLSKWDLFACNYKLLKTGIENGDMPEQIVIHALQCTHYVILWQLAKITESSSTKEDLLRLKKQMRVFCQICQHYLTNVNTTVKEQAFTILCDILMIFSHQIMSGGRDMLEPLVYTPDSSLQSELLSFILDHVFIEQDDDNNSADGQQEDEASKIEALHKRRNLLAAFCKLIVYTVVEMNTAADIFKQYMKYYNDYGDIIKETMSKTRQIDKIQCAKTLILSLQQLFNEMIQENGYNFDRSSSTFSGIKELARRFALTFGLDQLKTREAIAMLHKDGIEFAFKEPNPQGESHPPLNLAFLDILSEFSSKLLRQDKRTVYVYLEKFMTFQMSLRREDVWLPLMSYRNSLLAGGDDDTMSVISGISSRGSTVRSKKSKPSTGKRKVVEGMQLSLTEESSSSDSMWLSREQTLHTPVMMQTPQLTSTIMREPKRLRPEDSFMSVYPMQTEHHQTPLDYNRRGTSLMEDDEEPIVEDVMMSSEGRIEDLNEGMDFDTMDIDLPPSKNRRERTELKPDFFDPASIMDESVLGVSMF
UniProt P61011: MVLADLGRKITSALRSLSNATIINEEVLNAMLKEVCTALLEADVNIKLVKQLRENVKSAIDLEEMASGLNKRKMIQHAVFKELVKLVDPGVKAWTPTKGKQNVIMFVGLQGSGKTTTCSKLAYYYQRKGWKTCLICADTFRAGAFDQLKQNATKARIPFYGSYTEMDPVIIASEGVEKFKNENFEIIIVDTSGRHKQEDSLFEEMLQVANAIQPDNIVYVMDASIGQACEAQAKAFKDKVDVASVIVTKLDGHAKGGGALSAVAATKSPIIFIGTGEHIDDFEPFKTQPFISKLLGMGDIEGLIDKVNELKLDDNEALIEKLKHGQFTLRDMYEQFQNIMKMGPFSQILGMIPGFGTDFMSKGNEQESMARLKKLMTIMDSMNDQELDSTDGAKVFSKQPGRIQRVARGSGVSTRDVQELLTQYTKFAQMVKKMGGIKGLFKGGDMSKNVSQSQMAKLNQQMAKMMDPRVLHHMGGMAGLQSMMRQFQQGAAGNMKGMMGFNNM
UniProt Q92783: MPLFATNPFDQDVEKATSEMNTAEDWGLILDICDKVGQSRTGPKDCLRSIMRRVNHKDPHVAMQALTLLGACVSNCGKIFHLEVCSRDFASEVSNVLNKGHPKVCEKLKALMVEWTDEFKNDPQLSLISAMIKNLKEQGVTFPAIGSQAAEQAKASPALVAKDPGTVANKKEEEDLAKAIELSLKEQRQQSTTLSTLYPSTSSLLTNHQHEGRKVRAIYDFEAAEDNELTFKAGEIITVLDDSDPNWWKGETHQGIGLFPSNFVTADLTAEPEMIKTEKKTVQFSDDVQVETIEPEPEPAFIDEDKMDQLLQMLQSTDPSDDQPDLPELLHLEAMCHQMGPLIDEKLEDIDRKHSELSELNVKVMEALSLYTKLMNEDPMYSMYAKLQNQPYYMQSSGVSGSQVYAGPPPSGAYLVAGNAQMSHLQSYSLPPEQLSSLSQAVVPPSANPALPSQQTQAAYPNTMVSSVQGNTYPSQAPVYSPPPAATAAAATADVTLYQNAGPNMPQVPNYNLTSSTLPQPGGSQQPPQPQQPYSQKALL
UniProt Q69YQ0: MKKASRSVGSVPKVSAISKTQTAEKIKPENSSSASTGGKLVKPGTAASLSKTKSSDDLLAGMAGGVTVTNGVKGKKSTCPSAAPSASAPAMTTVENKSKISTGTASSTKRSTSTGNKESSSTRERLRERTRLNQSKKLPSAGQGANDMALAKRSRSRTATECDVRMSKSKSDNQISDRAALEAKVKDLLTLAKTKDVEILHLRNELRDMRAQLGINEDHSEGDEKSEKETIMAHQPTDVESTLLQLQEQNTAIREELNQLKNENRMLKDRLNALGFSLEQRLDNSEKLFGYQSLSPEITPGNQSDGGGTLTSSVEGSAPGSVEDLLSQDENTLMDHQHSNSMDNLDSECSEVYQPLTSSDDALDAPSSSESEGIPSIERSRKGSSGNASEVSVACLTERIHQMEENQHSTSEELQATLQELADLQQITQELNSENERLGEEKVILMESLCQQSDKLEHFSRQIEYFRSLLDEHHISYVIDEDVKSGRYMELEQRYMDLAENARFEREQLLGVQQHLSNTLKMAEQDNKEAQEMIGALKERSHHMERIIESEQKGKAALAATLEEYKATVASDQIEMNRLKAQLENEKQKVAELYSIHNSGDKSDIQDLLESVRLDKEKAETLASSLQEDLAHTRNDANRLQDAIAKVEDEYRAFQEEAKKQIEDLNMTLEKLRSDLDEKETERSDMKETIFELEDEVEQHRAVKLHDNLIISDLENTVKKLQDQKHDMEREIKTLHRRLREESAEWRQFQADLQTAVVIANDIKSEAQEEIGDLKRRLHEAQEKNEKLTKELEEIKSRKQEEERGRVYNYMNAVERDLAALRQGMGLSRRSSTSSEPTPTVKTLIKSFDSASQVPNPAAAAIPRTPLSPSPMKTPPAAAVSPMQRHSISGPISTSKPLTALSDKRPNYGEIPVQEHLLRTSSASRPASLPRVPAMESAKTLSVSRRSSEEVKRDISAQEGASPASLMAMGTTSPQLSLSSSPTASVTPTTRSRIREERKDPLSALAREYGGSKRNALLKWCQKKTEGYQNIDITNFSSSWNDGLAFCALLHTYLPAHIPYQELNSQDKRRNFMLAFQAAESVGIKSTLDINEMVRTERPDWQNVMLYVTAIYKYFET
UniProt P16150: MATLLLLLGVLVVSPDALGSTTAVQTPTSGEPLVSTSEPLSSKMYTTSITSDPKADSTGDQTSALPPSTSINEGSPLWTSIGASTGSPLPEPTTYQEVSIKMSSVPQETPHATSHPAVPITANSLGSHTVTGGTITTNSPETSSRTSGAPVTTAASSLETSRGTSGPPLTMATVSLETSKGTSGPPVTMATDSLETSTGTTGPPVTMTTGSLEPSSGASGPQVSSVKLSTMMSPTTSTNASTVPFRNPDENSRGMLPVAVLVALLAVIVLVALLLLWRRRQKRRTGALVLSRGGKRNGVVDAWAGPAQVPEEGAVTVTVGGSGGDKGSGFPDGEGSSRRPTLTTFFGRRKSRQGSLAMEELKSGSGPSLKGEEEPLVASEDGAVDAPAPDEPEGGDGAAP
UniProt Q9UHB9: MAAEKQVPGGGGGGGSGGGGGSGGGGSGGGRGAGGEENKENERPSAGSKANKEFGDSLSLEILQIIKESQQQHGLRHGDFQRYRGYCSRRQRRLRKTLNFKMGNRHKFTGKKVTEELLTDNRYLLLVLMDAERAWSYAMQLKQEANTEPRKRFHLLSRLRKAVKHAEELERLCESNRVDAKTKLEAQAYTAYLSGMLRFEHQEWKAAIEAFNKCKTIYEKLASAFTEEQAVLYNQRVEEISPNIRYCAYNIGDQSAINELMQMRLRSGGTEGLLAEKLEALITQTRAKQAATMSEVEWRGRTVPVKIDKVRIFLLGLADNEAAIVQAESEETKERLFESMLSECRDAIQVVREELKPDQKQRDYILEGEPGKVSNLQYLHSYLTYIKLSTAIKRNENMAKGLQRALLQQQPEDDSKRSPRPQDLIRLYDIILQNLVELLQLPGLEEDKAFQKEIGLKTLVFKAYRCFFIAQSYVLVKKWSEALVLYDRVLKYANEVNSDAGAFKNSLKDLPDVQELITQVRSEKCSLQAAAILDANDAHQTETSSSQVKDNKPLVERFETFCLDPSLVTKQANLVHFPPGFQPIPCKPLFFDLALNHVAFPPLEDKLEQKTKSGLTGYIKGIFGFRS
UniProt Q8NBT2: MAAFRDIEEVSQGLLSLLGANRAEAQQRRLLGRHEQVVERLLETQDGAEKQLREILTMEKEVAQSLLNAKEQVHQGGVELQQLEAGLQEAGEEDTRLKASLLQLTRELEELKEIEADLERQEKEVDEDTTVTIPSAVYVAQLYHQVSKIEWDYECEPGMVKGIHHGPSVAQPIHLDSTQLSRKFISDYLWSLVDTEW
UniProt O75494: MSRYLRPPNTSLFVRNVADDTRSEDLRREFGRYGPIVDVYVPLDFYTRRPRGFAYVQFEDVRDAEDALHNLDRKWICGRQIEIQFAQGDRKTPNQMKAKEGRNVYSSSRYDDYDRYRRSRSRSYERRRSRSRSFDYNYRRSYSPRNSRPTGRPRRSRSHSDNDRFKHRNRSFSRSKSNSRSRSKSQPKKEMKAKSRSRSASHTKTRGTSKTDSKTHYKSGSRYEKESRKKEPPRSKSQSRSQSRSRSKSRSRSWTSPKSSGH
UniProt Q01130: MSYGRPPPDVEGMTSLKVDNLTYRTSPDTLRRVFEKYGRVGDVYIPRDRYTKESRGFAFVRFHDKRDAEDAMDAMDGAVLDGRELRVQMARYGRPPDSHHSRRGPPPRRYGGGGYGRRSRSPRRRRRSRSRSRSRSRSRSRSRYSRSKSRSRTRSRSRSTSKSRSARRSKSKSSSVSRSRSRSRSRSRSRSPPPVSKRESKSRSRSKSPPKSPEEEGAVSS

Experiments:
Assay in all cases: log2 fold change, soluble protein after heating vs DMSO (PISA); higher = thermal stabilisation; K562 cells, 10 uM, 30 min; active = over 0.2 and 3.5 SD of the protein, either way, in both replicates (recomputed)
[1] = compound: CC1=C(C=C(C=C1)NC(=O)C2=CC(=CC=C2)C(C)(C)C#N)NC3=CC4=C(C=C3)N=CN(C4=O)C
Procedure, shortened: (§1)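 For each measurement, 10 μM compound was applied for 30 min to K562 cells at 2×10^6 cells/mL. Aliquots were heated for 3 min across 48°C-58°C, pooled, and extracted in PBS with 0.5% NP-40 at 4°C; the supernatant after 21,000xg for 90 min was soluble protein. This was quantified by TMTpro 16plex LC-MS/MS with channel sums equalised, and thermal stability was reported relative to control samples from duplicates, on a log2 fold-change scale.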

[2] = compound: CC1=C(C=C(C=C1)NC(=O)C2=CC(=CC=C2)N(C)C)NC(=O)C3=CC=C(C=C3)O
Procedure, shortened: as §1

[3] = compound: CC1=CC=C(C=C1)SC2=C3C=C(SC3=CN=C2)C(=O)N
Procedure, shortened: as §1

[4] = compound: CC1=NC(=CC=C1)C2=C(N=C(N2)C(C)(C)C)C3=CC4=NC=CN=C4C=C3
Procedure, shortened: as §1

[5] = compound: CCCCN(Cc1ccc(C(=O)NO)cc1)C(=O)Nc1ccccc1 [Nexturastat A]
Procedure, shortened: as §1

[6] = compound: CCCS(=O)(=O)Nc1ccc(F)c(C(=O)c2c[nH]c3ncc(-c4ccc(Cl)cc4)cc23)c1F [vemurafenib]
Procedure, shortened: as §1

[7] = compound: CCCS(=O)(=O)Nc1ccc(F)c(C(=O)c2c[nH]c3ncc(Cl)cc23)c1F
Procedure, shortened: as §1

[8] = compound: CCCc1cc(C)[nH]c(=O)c1CNC(=O)c1cc(-c2ccnc(N3CCN(C)CC3)c2)cc2c1cnn2C(C)C
Procedure, shortened: as §1

[9] = compound: CCN(CC)Cc1ccc2cc(COC(=O)Nc3ccc(C(=O)NO)cc3)ccc2c1 [givinostat]
Procedure, shortened: as §1

[10] = compound: CCN(CCCOc1ccc2c(Nc3cc(CC(=O)Nc4cccc(F)c4)[nH]n3)ncnc2c1)CCOP(=O)(O)O [barasertib]
Procedure, shortened: as §1

[11] = compound: CC[C@@H]1C(=O)N(C)c2cnc(Nc3ccc(C(=O)NC4CCN(C)CC4)cc3OC)nc2N1C1CCCC1
Procedure, shortened: as §1

[12] = compound: CC[C@@H]1C(=O)N(C)c2cnc(Nc3ccc(C(=O)N[C@H]4CC[C@H](N5CCN(CC6CC6)CC5)CC4)cc3OC)nc2N1C(C)C [volasertib]
Procedure, shortened: as §1

[13] = compound: CC[C@H](C)N1C=C(C2=C(C=C(C=C21)C3=CN=C(C=C3)N4CCNCC4)C(=O)NCC5=C(C=C(NC5=O)C)C)C
Procedure, shortened: as §1

[14] = compound: CC[C@H](C)[C@@H](C(=O)N[C@@H]([C@@H](C)O)C(=O)N[C@@H](CC(C)C)C(=O)[C@]1(CO1)C)NC(=O)[C@H]([C@@H](C)CC)N(C)C(=O)C [epoxomicin]
Procedure, shortened: as §1

[15] = compound: CCn1c(C(=O)N(C2CC2)C2CC2)cc2c3c(ncn3C)c(Nc3cc(C)n(C)n3)nc21
Procedure, shortened: as §1

[16] = compound: CCn1cc(-c2ccnc3[nH]c(-c4cccc(CN(C)C)c4)cc23)c(-c2ccc(NC(=O)N(C)C)cc2)n1
Procedure, shortened: as §1

[17] = compound: CN(C)CC(=O)Nc1ccc2[nH]c(=O)c3ccccc3c2c1
Procedure, shortened: as §1

[18] = compound: CN(CCOC1=CC=C(C=C1)C[C@H]2C(=O)NC(=O)S2)C3=CC=CC=N3 (racemic) [rosiglitazone]
Procedure, shortened: as §1

[19] = compound: CN1C2=C(C3=C1C(=O)N(N=C3)CC4=CC(=CC=C4)N)SC(=C2)S(=O)C
Procedure, shortened: as §1

[20] = compound: CN1CCC(CNc2ccc3ncc(-c4cccc(OC(F)(F)F)c4)n3n2)CC1
Procedure, shortened: as §1

Row | Target | log2 fold change [1] | log2 fold change [2] | log2 fold change [3] | log2 fold change [4] | log2 fold change [5] | log2 fold change [6] | log2 fold change [7] | log2 fold change [8] | log2 fold change [9] | log2 fold change [10] | log2 fold change [11] | log2 fold change [12] | log2 fold change [13] | log2 fold change [14] | log2 fold change [15] | log2 fold change [16] | log2 fold change [17] | log2 fold change [18] | log2 fold change [19] | log2 fold change [20]
1 | SSH2 (UniProt Q76I76) | inactive: -0.04 |  |  |  |  |  |  |  |  |  |  |  |  |  |  |  |  |  |  | 
2 | STAG2 (UniProt Q8N3U4) | inactive: -0.009 | inactive: 0.007 | inactive: 0 | inactive: 0.008 | inactive: 0.017 | inactive: 0.013 | inactive: 0.023 | inactive: 0.001 | inactive: 0.063 | inactive: 0.002 | inactive: -0.011 | inactive: -0.126 | inactive: 0.024 | inactive: 0.006 | inactive: -0.002 | inactive: -0.004 | inactive: -0.001 | inactive: -0.016 | inactive: -0.046 | inactive: -0.107
3 | SPIN1 (UniProt Q9Y657) | inactive: 0.103 | inactive: -0.035 | inactive: -0.029 | inactive: 0.017 | inactive: -0.145 | inactive: -0.11 | inactive: -0.034 | inactive: -0.077 | inactive: -0.184 | inactive: -0.016 | inactive: 0.085 | inactive: 0.024 | inactive: 0.112 | inactive: 0.069 | inactive: 0.005 | inactive: 0.022 | inactive: -0.005 | inactive: 0.021 | inactive: -0.01 | inactive: 0.048
4 | SRP54 (UniProt P61011) | inactive: 0.046 | inactive: -0.026 | inactive: 0.003 | inactive: 0 | inactive: 0.044 | inactive: 0.032 | inactive: 0.042 | inactive: 0.017 | inactive: 0.025 | inactive: 0.048 | inactive: -0.07 | inactive: -0.177 | inactive: 0.06 | inactive: 0.025 | inactive: -0.038 | inactive: -0.039 | inactive: 0.035 | inactive: 0.031 | inactive: -0.03 | inactive: -0.089
5 | STAM (UniProt Q92783) | inactive: -0.066 | inactive: -0.011 | inactive: 0.041 | inactive: 0.099 | inactive: -0.143 | inactive: 0.005 | inactive: 0.034 | inactive: -0.051 | inactive: -0.044 | inactive: 0.026 | inactive: -0.048 | inactive: -0.108 | inactive: 0.026 | inactive: -0.068 | inactive: 0.005 | inactive: -0.004 | inactive: -0.046 | inactive: 0.044 | inactive: 0.061 | inactive: -0.025
6 | SPECC1L (UniProt Q69YQ0) | inactive: -0.02 | inactive: 0.077 | inactive: 0.037 | inactive: 0.008 | inactive: 0.023 | inactive: 0.064 | inactive: -0.053 | inactive: -0.065 | inactive: -0.004 | inactive: 0.003 | inactive: -0.006 | inactive: 0.001 | inactive: -0.033 | inactive: 0.023 | inactive: 0.01 | inactive: 0.01 | inactive: 0.008 | inactive: 0.002 | inactive: -0.012 | inactive: -0.069
7 | SPN (UniProt P16150) | inactive: -0.096 | inactive: -0.021 | inactive: -0.017 | inactive: -0.009 | inactive: 0.009 | inactive: -0.019 | inactive: -0.056 | inactive: -0.033 | inactive: 0.003 | inactive: 0.012 | inactive: 0.077 | inactive: 0.075 | inactive: -0.089 | inactive: -0.005 | inactive: -0.01 | inactive: -0.055 | inactive: -0.036 | inactive: -0.02 | inactive: -0.064 | inactive: 0.19
8 | SRPRA (UniProt P08240) | inactive: 0.089 | inactive: -0.06 | inactive: 0.018 | inactive: 0.047 | inactive: 0 | inactive: 0.038 | inactive: 0.069 | inactive: 0.001 | inactive: 0.018 | inactive: 0.04 | inactive: -0.116 | inactive: -0.107 | inactive: 0.007 | inactive: 0.02 |  | inactive: -0.036 | inactive: 0.032 |  | inactive: -0.055 | inactive: 0.009
9 | SRP68 (UniProt Q9UHB9) | inactive: 0.028 | inactive: -0.062 | inactive: 0 | inactive: 0.018 | inactive: 0.125 | inactive: 0.063 | inactive: 0.091 | inactive: 0.064 | inactive: 0.075 | inactive: 0.078 | inactive: -0.077 | active: -0.487 | inactive: 0.079 | inactive: 0.094 |  | inactive: -0.024 | inactive: 0.019 |  | inactive: 0.133 | inactive: -0.18
10 | SPC24 (UniProt Q8NBT2) | inactive: 0.065 | inactive: -0.044 | inactive: 0.011 | inactive: 0.069 | inactive: -0.018 | inactive: 0.095 | inactive: 0.077 | inactive: 0.014 | inactive: 0 | inactive: 0.044 | inactive: -0.163 | inactive: -0.144 | inactive: 0.014 | inactive: 0.017 | inactive: 0.008 | inactive: 0.01 | inactive: 0.049 | inactive: 0.048 | inactive: -0.048 | inactive: 0.033
11 | STARD7 (UniProt Q9NQZ5) | inactive: 0.061 | inactive: 0.015 | inactive: 0.004 | inactive: -0.01 | inactive: -0.053 | inactive: 0 | inactive: -0.033 | inactive: 0.024 | inactive: -0.029 | inactive: -0.008 | inactive: -0.07 | inactive: -0.032 | inactive: 0.007 | inactive: 0.024 |  | inactive: -0.123 | inactive: 0.012 |  | inactive: 0.012 | inactive: -0.158
12 | STAU1 (UniProt O95793) | inactive: 0.004 | inactive: 0.037 | inactive: -0.124 | inactive: -0.092 | inactive: 0.299 | inactive: -0.227 | inactive: -0.021 | inactive: 0.162 | inactive: 0.107 | inactive: -0.061 | inactive: 0.215 | inactive: 0.46 | inactive: 0.047 | inactive: -0.406 | inactive: 0.043 | inactive: 0.23 | inactive: -0.199 | inactive: -0.12 | inactive: 0.387 | inactive: 0.261
13 | SRSF10 (UniProt O75494) | inactive: -0.046 | inactive: 0.029 | inactive: -0.076 | inactive: -0.134 | inactive: 0.227 | inactive: -0.027 | inactive: -0.027 | inactive: 0.083 | inactive: 0.017 | inactive: -0.045 | inactive: 0.141 | inactive: 0.274 | inactive: -0.197 | inactive: -0.408 |  | inactive: 0.276 | inactive: -0.127 |  | inactive: 0.498 | inactive: 0.237
14 | SRGAP2 (UniProt O75044) | inactive: 0.016 | inactive: 0.011 | inactive: -0.027 | inactive: -0.027 | inactive: 0.034 | inactive: -0.037 | inactive: -0.015 | inactive: 0.085 | inactive: 0.008 | inactive: 0.04 | inactive: -0.031 | inactive: -0.015 | inactive: 0.03 | inactive: -0.016 | inactive: -0.014 | inactive: -0.007 | inactive: -0.016 | inactive: 0.035 | inactive: -0.015 | inactive: -0.035
15 | SRSF2 (UniProt Q01130) | inactive: -0.023 | inactive: 0.053 | inactive: -0.033 | inactive: -0.032 | inactive: 0.036 | inactive: -0.046 | inactive: -0.025 | inactive: -0.023 | inactive: 0.005 | inactive: -0.007 | inactive: 0.087 | inactive: 0.134 | inactive: -0.027 | inactive: -0.069 |  | inactive: 0.022 | inactive: -0.082 |  | inactive: 0.045 | inactive: 0.054
16 | SSR1 (UniProt P43307) | inactive: -0.021 | inactive: 0.015 | inactive: 0.003 | inactive: -0.01 | inactive: -0.062 | inactive: -0.009 | inactive: 0.005 | inactive: 0.006 | inactive: -0.033 | inactive: -0.02 | inactive: 0.034 | inactive: 0.029 | inactive: -0.032 | inactive: -0.012 | inactive: 0.051 | inactive: -0.006 | inactive: 0.007 | inactive: 0.003 | inactive: 0.001 | inactive: 0.07

Only log2 fold change [1], log2 fold change [20] and log2 fold change [16] (2 entries from above):
Row,Target,log2 fold change [1],log2 fold change [20],log2 fold change [16]
12,STAU1 (UniProt O95793),inactive: 0.004,inactive: 0.261,inactive: 0.23
13,SRSF10 (UniProt O75494),inactive: -0.046,inactive: 0.237,inactive: 0.276
